Among the data in patent US20090186810A1, “POTASSIUM CHANNEL MODULATORS AND PLATELET PROCOAGULANT ACTIVITY” (priority 2006, published 2009) are IC50 values, retold here.

In the test the test system is collagen and thrombin activated platelets. Nature of the test: cells. Format: cell-based. The following applies: Homo sapiens, Platelet, read-out: estimated IC50 on the platelet procoagulant response. As for the experimental part:
Platelet isolation was performed as described.^10 Briefly, 10 milliliters (mL) blood was collected in 2 mL anticoagulant ACD (80 mmol/L trisodium citrate, 52 mmol/L citric acid and 180 mmol/L glucose). Platelet rich plasma was obtained by centrifuging whole blood for 15 minutes at 200 g. Platelets were spun down at 11,500× gravity for 2 minutes using a microfuge. The platelet pellet was resuspended and washed twice with 10 mmol/L HEPES, 137 mmol/L NaCl, 2.7 mmol/L KCl, 2 mmol/L MgCl2, 5 mmol/L glucose and 0.5 mg/mL BSA, adjusted at pH 6.6); before each centrifugation step, 100 μL ACD was added to each mL resuspended platelets. Finally, platelets were resuspended in HEPES buffer at pH 7.4. Platelet count was adjusted at 2×10^8 platelets/mL. For measurement of the intracellular Ca^2+ concentration ([Ca^2+]i), platelets were loaded with Fura-2 (3 μmol/L) during 45 minutes at 37° C., prior to isolation. […]
Platelet procoagulant activity was assayed as described in more detail elsewhere.^9 Briefly, after activation of 10^7 platelets/mL with collagen (10 μg/mL) and thrombin (4 nmol/L) for 10 minutes, samples were taken and diluted to 10^6 platelets/mL in HEPES buffer containing 3 mmol/L CaCl2 and 0.5 mg/mL BSA. […] Thrombin was measured using the chromogenic substrate S2238. […]

Regarding `Clc1ccccc1C(c1ccccc1)(c1ccccc1)n1ccnc1` [clotrimazol, 1-[(2-chlorophenyl)diphenylmethyl]-1H-imidazole], the IC50 is 100 nM.
